The values that follow come from article PMC5006505.

Amino acid sequences for entries named in this document (tags omitted).
UniProt Q8N5X7: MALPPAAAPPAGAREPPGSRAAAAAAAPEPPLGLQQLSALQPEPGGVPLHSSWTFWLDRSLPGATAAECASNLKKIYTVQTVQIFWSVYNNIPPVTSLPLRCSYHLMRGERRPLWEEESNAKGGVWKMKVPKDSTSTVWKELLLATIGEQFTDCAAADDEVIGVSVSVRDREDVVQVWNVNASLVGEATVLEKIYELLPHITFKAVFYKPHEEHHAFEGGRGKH
UniProt O43432: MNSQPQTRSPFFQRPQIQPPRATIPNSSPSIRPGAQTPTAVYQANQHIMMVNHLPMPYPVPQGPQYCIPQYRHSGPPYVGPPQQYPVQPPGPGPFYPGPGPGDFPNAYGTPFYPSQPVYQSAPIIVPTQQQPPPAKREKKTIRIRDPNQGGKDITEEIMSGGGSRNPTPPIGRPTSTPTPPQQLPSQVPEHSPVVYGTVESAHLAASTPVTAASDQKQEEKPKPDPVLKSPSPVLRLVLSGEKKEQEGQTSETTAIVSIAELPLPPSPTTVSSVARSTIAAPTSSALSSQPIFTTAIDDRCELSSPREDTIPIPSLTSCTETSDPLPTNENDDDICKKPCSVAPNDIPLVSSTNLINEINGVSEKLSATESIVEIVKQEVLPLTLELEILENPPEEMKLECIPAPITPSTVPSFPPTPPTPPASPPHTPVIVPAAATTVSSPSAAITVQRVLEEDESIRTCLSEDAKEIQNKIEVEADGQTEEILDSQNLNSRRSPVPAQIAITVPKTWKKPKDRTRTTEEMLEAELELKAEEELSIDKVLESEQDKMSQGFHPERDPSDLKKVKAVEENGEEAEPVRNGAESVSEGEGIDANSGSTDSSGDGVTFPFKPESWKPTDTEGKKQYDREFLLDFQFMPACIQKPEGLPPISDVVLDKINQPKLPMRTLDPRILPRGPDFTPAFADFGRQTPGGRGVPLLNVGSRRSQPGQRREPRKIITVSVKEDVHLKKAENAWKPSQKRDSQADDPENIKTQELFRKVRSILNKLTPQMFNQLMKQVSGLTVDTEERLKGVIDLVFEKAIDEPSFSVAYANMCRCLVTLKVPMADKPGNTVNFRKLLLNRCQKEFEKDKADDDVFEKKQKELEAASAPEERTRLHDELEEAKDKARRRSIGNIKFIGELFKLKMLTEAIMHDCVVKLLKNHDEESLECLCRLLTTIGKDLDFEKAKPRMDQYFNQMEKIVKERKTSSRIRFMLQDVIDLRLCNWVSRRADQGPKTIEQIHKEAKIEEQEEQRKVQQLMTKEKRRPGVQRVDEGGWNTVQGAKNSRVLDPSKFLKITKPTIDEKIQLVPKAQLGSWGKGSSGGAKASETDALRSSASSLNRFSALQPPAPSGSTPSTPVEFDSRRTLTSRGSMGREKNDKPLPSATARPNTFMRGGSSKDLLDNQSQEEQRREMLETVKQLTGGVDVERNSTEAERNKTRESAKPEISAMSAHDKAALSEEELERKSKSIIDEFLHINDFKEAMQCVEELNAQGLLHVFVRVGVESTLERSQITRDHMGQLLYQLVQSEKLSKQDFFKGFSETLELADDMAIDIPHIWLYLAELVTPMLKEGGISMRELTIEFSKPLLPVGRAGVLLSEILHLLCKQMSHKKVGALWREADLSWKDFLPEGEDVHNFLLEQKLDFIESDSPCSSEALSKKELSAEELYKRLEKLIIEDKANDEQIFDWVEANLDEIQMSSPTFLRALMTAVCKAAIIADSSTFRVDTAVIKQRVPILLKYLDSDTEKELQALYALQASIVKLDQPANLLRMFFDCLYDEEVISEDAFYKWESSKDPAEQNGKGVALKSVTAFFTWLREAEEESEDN

This assay addresses GFP-eIF4E3_A (human) (UniProt Q8N5X7). The assay can be described thus: affinity purification with mass spectrometry; GFP-Trap_A beads on lysates of transiently transfected HEK293 cells producing GFP-eIF4E3_A or GFP-eIF4E3_B; 12 % SDS-PAGE, Coomassie-stained bands or gel areas excised, MALDI TOF/TOF.

These are yes or no findings as the source states them, for the method shown. Binding seen in cells or lysates may run through a third protein. These calls come from enrichment with a bait or labelling near it, and not all partners need be listed.

Regarding “eIF4G protein isoform 3 (eIF4G3) (from UniProt O43432 1-1585)”, the binding entry is given as “binds”.
